From PMC3480639
These are yes or no findings as the source states them, for the method shown. In cells and extracts the contact can be indirect. Here binding means that the protein was enriched with, or labelled near, the bait; the list need not be complete.

By UniProt entry, the sequences of proteins in these tests, tags left out.
UniProt P62207: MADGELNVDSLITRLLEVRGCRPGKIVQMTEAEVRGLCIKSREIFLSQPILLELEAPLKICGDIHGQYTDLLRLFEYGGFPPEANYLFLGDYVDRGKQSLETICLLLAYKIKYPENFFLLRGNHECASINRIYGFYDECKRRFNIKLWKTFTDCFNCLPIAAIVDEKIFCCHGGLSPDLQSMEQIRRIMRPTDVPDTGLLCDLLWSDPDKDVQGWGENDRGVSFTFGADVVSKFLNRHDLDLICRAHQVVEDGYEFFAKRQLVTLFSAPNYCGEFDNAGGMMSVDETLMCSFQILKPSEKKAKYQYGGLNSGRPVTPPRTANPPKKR

Legend:
[1] = target: T1, TrAP:hRepo-Man^WT (human) (UniProt Q69YH5); assay: affinity purification with mass spectrometry; SILAC pull-downs from DT40 cells: Repo-Man plus roscovitine (anaphase) against minus roscovitine (prometaphase), and Repo-Man against TrAP:GFP (both roscovitine-treated)
T1 sequence: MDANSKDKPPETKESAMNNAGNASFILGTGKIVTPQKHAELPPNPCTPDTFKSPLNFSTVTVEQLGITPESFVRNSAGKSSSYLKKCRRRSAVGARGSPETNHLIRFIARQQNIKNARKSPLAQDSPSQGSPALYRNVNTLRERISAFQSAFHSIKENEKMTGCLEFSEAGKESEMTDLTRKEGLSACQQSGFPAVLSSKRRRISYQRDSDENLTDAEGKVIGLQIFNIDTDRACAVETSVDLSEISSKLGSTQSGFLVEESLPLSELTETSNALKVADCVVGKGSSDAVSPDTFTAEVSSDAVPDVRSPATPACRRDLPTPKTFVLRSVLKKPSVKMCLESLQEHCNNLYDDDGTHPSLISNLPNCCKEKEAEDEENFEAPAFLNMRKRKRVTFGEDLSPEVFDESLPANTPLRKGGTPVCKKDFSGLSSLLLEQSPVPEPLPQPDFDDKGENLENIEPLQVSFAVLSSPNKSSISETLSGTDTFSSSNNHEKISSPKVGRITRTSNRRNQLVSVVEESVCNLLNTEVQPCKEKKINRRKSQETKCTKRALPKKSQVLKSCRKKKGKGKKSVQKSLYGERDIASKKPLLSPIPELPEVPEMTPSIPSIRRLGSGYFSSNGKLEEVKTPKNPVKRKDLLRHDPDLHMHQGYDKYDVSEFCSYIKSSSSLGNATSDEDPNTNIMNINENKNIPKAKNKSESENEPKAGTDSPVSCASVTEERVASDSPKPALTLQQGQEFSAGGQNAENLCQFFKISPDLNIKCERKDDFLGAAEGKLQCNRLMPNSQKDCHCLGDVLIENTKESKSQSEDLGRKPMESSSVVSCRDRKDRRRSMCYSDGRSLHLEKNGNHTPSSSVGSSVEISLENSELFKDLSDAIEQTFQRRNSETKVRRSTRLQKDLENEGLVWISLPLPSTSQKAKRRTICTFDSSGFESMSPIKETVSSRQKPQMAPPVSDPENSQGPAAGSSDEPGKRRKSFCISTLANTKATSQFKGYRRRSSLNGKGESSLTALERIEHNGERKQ

[2] = target: T1, TrAP:hRepo-Man^WT (human); assay: affinity purification with mass spectrometry; TrAP-tagged Repo-Man from DT40 cells blocked with colcemid and forced to exit mitosis with roscovitine; proteins solubilised from the chromosome fraction, streptavidin beads then S-protein column

Row | Substance | binding [1] | binding [2]
1 | Importin α (endogenous, DT40) (chicken (endogenous in DT40)) | binds | 
2 | Importin β (endogenous, DT40) (chicken (endogenous in DT40)) | binds | binds
3 | NUP50 (endogenous, DT40) (chicken (endogenous in DT40)) |  | binds

Continued, values first:

Row | binding [1] | binding [2] | Substance
4 | binds | binds | NUP153 (endogenous, DT40) (chicken (endogenous in DT40))
5 | binds | binds | PP1β (endogenous, DT40) (from UniProt P62207 1-327) (enzyme)
